Earlier results in US20100292183A1, “TETRACYCLINE AND USES THEREOF” (priority 2009, published 2010).
For at least one compound, name, drawing or mass did not settle the structure.

Tested on: advanced atherosclerotic plaques
Conditions: disclosed in U.S. patent application Ser. No. 12/286,368; cited from earlier work

In the case of CN(C)[C@@H]1C(O)=C(C(N)=O)C(=O)[C@@]2(O)C(O)=C3C(=O)c4c(O)cccc4[C@@](C)(O)[C@H]3C[C@@H]12 [tetracycline], the “binding to advanced atherosclerotic plaques” value is listed as “specific affinity binding”.
